Source: the supplement of paper PMC6445147
Values scatter widely in this assay.

B1: human tRNA-Pro; a variant is named by its letters at N, in order (parent)
chain: GGCTCGTTGGTCTAGNGGTATGATTCTCGCTTAGGGTGCGAGAGGTCCCGGGTTCNNATCCCGGACGAGCCC

Legend:
[1] = variants of: B1; test: tRNA Pol-III promoter activity, log2 (circRNA frequency / plasmid DNA frequency) (log2 ratio); higher = stronger promoter activity; settings: HEK293T; construct: no Pol-II promoter ((-)CMV library)
[2] = variants of: B1; test: tRNA 3' processing efficiency (processed reads / all reads, maximum-likelihood estimate) (fraction); higher = more efficient 3' processing; settings: HEK293T; construct: no Pol-II promoter ((-)CMV library)
[3] = variants of: B1; test: tRNA 5' processing efficiency (processed reads / all reads, maximum-likelihood estimate) (fraction); higher = more efficient 5' processing; settings: HEK293T; construct: CMV Pol-II promoter ((+)CMV library, decapped)

Variant	tRNA Pol-III promoter activity (log2) [1]	tRNA 3' processing efficiency [2]	tRNA 5' processing efficiency [3]
GGCTCGTTCGTCTAGCGTTATGATTCTCGCTTAGGGTGCGAGAGGTCCCGGGTTCAAATCCCGGACGAGCCC	3.61	0.75	–
GGCTCGTTTGTCTAGGGGTATGATTCTCGCTTAGGGTGCGAGAGGTCCCGGGTTCAACCCCCGGACGAGCCC	4.16	0.57	–
GGCTCGTTTGTCTCGGGGTATGATTCTCGCTTAGGGTGCGAGAGGTCCCGGGTTCAATTCCCGGACGAGCCC	4.39	0.27	–
GGCTCGTTCGTCTAGGGGTTTGATTCTCGCTTAGGGTGCGAGAGGTCCCGGGATCAAGTCCCGGACGAGCCC	6.94	0.38	–
GGCTCGTTCGTCTAGGTGGTTGATTCTCGCTTAGGGTGCGAGAGGTCCCGGGCTAAAAGCCCGGACGAGCCC	2.93	0.5	–
GGCTCGTTCGTCTATGCGCATGATTCTCGCTTAGGGTGCGAGAGGTCCCGGGTTCAACTCCCGGACGAGCCC	5.25	0.8	–
GGCTCGTTTGTCTAGTGGTATGATTCTCGCTTAGGGTGCGAGAGGTCCCGGGTTCAAATCCCGGACGAGCCC	-0.275	0.2	0.17
GGCTCGTTTGTCTTGGGGAATGATTCTCGCTTAGGGTGCGAGAGGTCCCGGGTTCAAAGCCCGGACGAGCCC	4.21	0.33	–
GGCTCGTTTGTCTAGGGGTATGATTCTCGCTTAGGGTGCGAGAGGTCCCGGGTTCAAATCCCGGACGAGCCC	-5.41	0.5	0.1
GGCTCGTTCGTCTAGGGGTATGATTCTCGCTTAGGGTGCGAGAGGTCCCGGGTTCAAATCCCGGACGAGCCC	-3.32	0.29	–
GGCTCGTTCGTCTAGGGTTATGATTCTCGCTTAGGGTGCGAGAGGTCCCGGGTTCAAACCCCGGACGAGCCC	3.71	0.25	–
GGCTCGTTTGTCTAGGGGTTTGATTCTCGCTTAGGGTGCGAGAGGTCCCGGGTTCAAAGCCCGGACGAGCCC	5.51	0.15	–
GGCTCGTTCGTCTAGGGATATGATTCTCGCTTAGGGTGCGAGAGGTCCCGGGTACAAATCCCGGACGAGCCC	3.94	0.57	–
GGCTCGTTCGTCTCGGGGTATGATTCTCGCTTAGGGTGCGAGAGGTCCCGGGTTCAAATCCCGGACGAGCCC	1.23	0.25	–
GGCTCGTTAGTCTAGGGGTATGATTCTCGCTTAGGGTGCGAGAGGTCCCGGGTTCAAAGCCCGGACGAGCCC	1.23	0.23	–
GGCTCGTTCGTCTAGGCGTTTGATTCTCGCTTAGGGTGCGAGAGGTCCCGGGTTCAAATCCCGGACGAGCCC	1.3	0.33	–
GGCTCGTTTGTCTAGCGGTATGATTCTCGCTTAGGGTGCGAGAGGTCCCGGGTTCAATTCCCGGACGAGCCC	4	0.62	–
GGCTCGTTTGTCTGGGGATATGATTCTCGCTTAGGGTGCGAGAGGTCCCGGGTTCAAATCCCGGACGAGCCC	3.68	0.25	–

An excerpt of these results, as labelled records:
GGCTCGTTCGTCTAGCGTTATGATTCTCGCTTAGGGTGCGAGAGGTCCCGGGTTCAAATCCCGGACGAGCCC
  tRNA Pol-III promoter activity (log2) [1] = 3.61
  tRNA 3' processing efficiency [2] = 0.75
GGCTCGTTCGTCTAGGCGTTTGATTCTCGCTTAGGGTGCGAGAGGTCCCGGGTTCAAATCCCGGACGAGCCC
  tRNA Pol-III promoter activity (log2) [1] = 1.3
  tRNA 3' processing efficiency [2] = 0.33

(continued)

Variant	tRNA Pol-III promoter activity (log2) [1]	tRNA 3' processing efficiency [2]	tRNA 5' processing efficiency [3]
GGCTCGTTCGTCTACGGTTATGATTCTCGCTTAGGGTGCGAGAGGTCCCGGGTTCAAATCCCGGACGAGCCC	3.03	0.5	–
GGCTCGTTAGTCTAGAGGTATGATTCTCGCTTAGGGTGCGAGAGGTCCCGGGTTCAAAGCCCGGACGAGCCC	4.93	0.17	–
GGCTCGTTTGTCTTGGGGTATGATTCTCGCTTAGGGTGCGAGAGGTCCCGGGTTCAAAGCCCGGACGAGCCC	4.43	0.43	–
GGCTCGTTTGTCTAGGGGTATGATTCTCGCTTAGGGTGCGAGAGGTCCCGGGTTCAATACCCGGACGAGCCC	2.24	0.25	–
GGCTCGTTTGTCTAGGGGTATGATTCTCGCTTAGGGTGCGAGAGGTCCCGGGTTCAATGCCCGGACGAGCCC	3.12	0.13	–
GGCTCGTTTGTCTAGAGGTATGATTCTCGCTTAGGGTGCGAGAGGTCCCGGGTTCAAATCCCGGACGAGCCC	-1.6	0.5	–
GGCTCGTTTGTCTAGGGGTATGATTCTCGCTTAGGGTGCGAGAGGTCCCGGGTTCAATTCCCGGACGAGCCC	-0.229	0.4	0.27
GGCTCGTTTGTCTAGGGGTATGATTCTCGCTTAGGGTGCGAGAGGTCCCGGGTTCAACTCCCGGACGAGCCC	0.0512	0.5	–
GGCTCGTTTGTCTAGGGGTATGATTCTCGCTTAGGGTGCGAGAGGTCCCGGGTTCAAGTCCCGGACGAGCCC	-0.183	0.2	–
GGCTCGTTCGTCTAGGGGCATGATTCTCGCTTAGGGTGCGAGAGGTCCCGGGTTCAAACCCCGGACGAGCCC	5.36	0.4	–
GGCTCGTTCGTCTAGGGATATGATTCTCGCTTAGGGTGCGAGAGGTCCCGGGTTCAAATCCCGGACGAGCCC	0.727	0.8	–
GGCTCGTTCGTCTAGGGGATTGATTCTCGCTTAGGGTGCGAGAGGTCCCGGGTTCAAATCCCGGACGAGCCC	3.05	0.57	–
GGCTCGTTCGTCTACCGGTATGATTCTCGCTTAGGGTGCGAGAGGTCCCGGGTTCAACTCCCGGACGAGCCC	3.62	0.5	–
GGCTCGTTCGTCTTGGGGTATGATTCTCGCTTAGGGTGCGAGAGGTCCCGGGTTCAACTCCCGGACGAGCCC	1.77	0.5	–
GGCTCGTTCGTCTAGGGGTATGATTCTCGCTTAGGGTGCGAGAGGTCCCGGGTTCAAACCCCGGACGAGCCC	0.109	0.25	–
GGCTCGTTTGTCTAGGGGTTTGATTCTCGCTTAGGGTGCGAGAGGTCCCGGGTTCAAATCCCGGACGAGCCC	-0.193	0.42	–
GGCTCGTTTGTCTAGGGGTGTGATTCTCGCTTAGGGTGCGAGAGGTCCCGGGTTCAAATCCCGGACGAGCCC	0.681	0.11	–
GGCTCGTTCGTCTAGGCGTATGATTCTCGCTTAGGGTGCGAGAGGTCCCGGGGTCAAATCCCGGACGAGCCC	2.57	0.25	–
